Counter-ions that a name gives are not always drawn.
System: OATP1B2
Test: Untargeted metabolomics of plasma and DRG, WT vs OATP1B2-deficient mice
Type: in vivo, mouse
[1] = untargeted metabolomics, WT vs OATP1B2-deficient mice, supplement sheet "Figure 5B" (volcano plot)
[2] = untargeted metabolomics, WT vs OATP1B2-deficient mice, supplement sheet "Figure 5B"
[3] = untargeted metabolomics, sheet "Figure 5C", WT vs OATP1B2-deficient mice
[4] = Figure 5B source data (volcano plot), untargeted metabolomics, WT vs OATP1B2-deficient mice, log2 fold change of metabolite level

| SMILES | Log2FoldChange [1] | Log2FoldChange [3] | further results |
| --- | --- | --- | --- |
| CCCCC/C=C\C/C=C\C/C=C\C/C=C\CCCC(=O)O[C@H](CC(=O)[O-])C[N+](C)(C)C [arachidonoylcarnitine (C20:4)] | 0.9411 |  |  |
| CCCCC/C=C\C/C=C\C/C=C\C/C=C\CCCC(=O)OCC[N+](C)(C)C [arachidonoylcholine] |  |  | Log2FoldChange [2]: 0.02857 |
| CCCCCCCCCCCCCCCCCCCC(=O)NCCO [arachidoyl ethanolamide (20:0)*] |  | 0.08406 |  |
| CCCCCCCCCCCCCCCCCCCC(=O)OC(CC(=O)[O-])C[N+](C)(C)C (stereo not shown) [arachidoylcarnitine (C20)*] | 0.4436 | 0 |  |
| NC(N)=NCCC[C@H](O)C(=O)O [argininate*] | 0.3448 | 0.696 |  |
| O=C1O[C@H]([C@@H](O)CO)C(OS(=O)(=O)O)=C1O [ascorbic acid 3-sulfate*] |  | -0.2863 |  |
| NC(=O)C[C@H](N)C(=O)O [asparagine] |  | 0.2016 | Log2FoldChange [2]: -0.08927 |
| N[C@@H](CC(=O)O)C(=O)O [aspartate] | 0.2388 | 0.08406 |  |
| O=C(O)CCCCCCCC(=O)O [azelate (C9-DC)] |  | 0.4005 |  |
| CCCCCCCCCCCCC/C=C/[C@@H](O)[C@H](COP(=O)([O-])OCC[N+](C)(C)C)NC(=O)CCCCCCCCCCCCCCCCCCCCC [behenoyl sphingomyelin (d18:1/22:0)*] |  | -0.4344 | Log2FoldChange [2]: 0.09761 |
| NCCC(=O)O [beta-alanine] |  |  | Log2FoldChange [2]: 0.02857 |
| O=C(O)CC[C@H](NC(=O)C(O)(CC(=O)O)CC(=O)O)C(=O)O [beta-citrylglutamate] |  | 0.2016 |  |
| CC(C)(O)CC(=O)O [beta-hydroxyisovalerate] | 0.4854 | 0.7049 |  |
| CC(C)(O)CC(=O)O[C@H](CC(=O)[O-])C[N+](C)(C)C [beta-hydroxyisovaleroylcarnitine] |  |  | Log2FoldChange [2]: -0.1047 |
| C[C@H](CCC(=O)O)[C@H]1CC[C@H]2[C@@H]3[C@@H](O)[C@@H](O)[C@@H]4C[C@H](O)CC[C@]4(C)[C@H]3CC[C@]12C [beta-muricholate] | 3.923 |  |  |
| CC[C@H](CC[C@@H](C)[C@H]1CC[C@H]2[C@@H]3CC=C4C[C@@H](O)CC[C@]4(C)[C@H]3CC[C@]12C)C(C)C [beta-sitosterol] |  |  | Log2FoldChange (mouse, in vivo): 0.4854 |
| C[N+](C)(C)CC=O [betaine aldehyde] |  | -0.3401 |  |
| C[N+](C)(C)CC(=O)O [betaine] |  |  | Log2FoldChange [2]: 0.2016 |
| C[N+]1(C)C[C@H](O)C[C@H]1C(=O)[O-] [betonicine] | 0.2265 |  |  |

| SMILES | Log2FoldChange [1] | Log2FoldChange [3] | further results |
| --- | --- | --- | --- |
| C=CC1=C(C)/C(=C/c2[nH]c(Cc3[nH]c(/C=C4\NC(=O)C(C)=C4C=C)c(C)c3CCC(=O)O)c(CCC(=O)O)c2C)NC1=O [bilirubin (E,E)*] | 2.614 |  |  |
| C=CC1=C(C)/C(=C/c2[nH]c(Cc3[nH]c(/C=C4\NC(=O)C(C)=C4C=C)c(C)c3CCC(=O)O)c(CCC(=O)O)c2C)NC1=O [bilirubin (Z,Z)] | 2.392 |  |  |
| C=CC1=C(C)/C(=C/C2=NC(=C\c3[nH]c(/C=C4\NC(=O)C(C)=C4C=C)c(C)c3CCC(=O)O)/C(CCC(=O)O)=C2C)NC1=O [biliverdin] | 2.0321 |  |  |
| CCCC(=O)OC(CC(=O)[O-])C[N+](C)(C)C (stereo not shown) [butyrylcarnitine (C4)] |  | 0.1763 |  |
| CCCC(=O)NCC(=O)O [butyrylglycine] | 0.7824 |  |  |
| CC(C)[C@H](C)CC[C@@H](C)[C@H]1CC[C@H]2[C@@H]3CC=C4C[C@@H](O)CC[C@]4(C)[C@H]3CC[C@]12C [campesterol] | 0.2869 |  |  |
| CCCCCCCCCC(=O)O [caprate (10:0)] |  | 0.02857 | Log2FoldChange [2]: 0.08406 |
| CCCCCC(=O)O [caproate (6:0)] | 0.263 | 0.1375 |  |
| O=C(O)CCCNCCC(=O)O [carboxyethyl-GABA] |  |  | Log2FoldChange [4]: -0.6897 |
| NCCC(=O)N[C@@H](Cc1cnc[nH]1)C(=O)O [carnosine] |  |  | Log2FoldChange [2]: -0.08927 |
| O=C(O)[C@H]1O[C@@H](Oc2ccccc2O)[C@H](O)[C@@H](O)[C@@H]1O [catechol glucuronide] |  |  | Log2FoldChange [2]: -0.1203 |
| C[C@H](CCC(=O)O)[C@H]1CC[C@H]2[C@@H]3[C@H](O)C[C@@H]4C[C@H](O)CC[C@]4(C)[C@H]3CC[C@]12C [chenodeoxycholate] | 1.836 |  |  |
| CC(C)CCC[C@@H](C)[C@H]1CC[C@H]2[C@@H]3CC=C4C[C@@H](O)CC[C@]4(C)[C@H]3CC[C@]12C [cholesterol] |  | -0.1047 |  |
| C[N+](C)(C)CCOP(=O)(O)O [choline phosphate] |  | -0.0145 |  |
| C[N+](C)(C)CCO [choline] |  |  | Log2FoldChange [2]: 0.08406 |
| O=C(O)/C=C/c1ccccc1 [cinnamate] | 0.6781 |  |  |
| O=C(O)CNC(=O)/C=C/c1ccccc1 [cinnamoylglycine] | 0.9928 |  |  |
| CCCC1CC1CC(=O)OC(CC(=O)[O-])C[N+](C)(C)C (stereo not drawn) [cis-3,4-methyleneheptanoylcarnitine] |  |  | Log2FoldChange [2]: 0.1763 |
| CCCCC/C=C\CCC(=O)O [cis-4-decenoate (10:1n6)*] |  | 0.263 | Log2FoldChange [4]: -0.4739 |

| SMILES | Log2FoldChange [1] | Log2FoldChange [3] | further results |
| --- | --- | --- | --- |
| O=C(O)/C=C\c1c[nH]cn1 [cis-urocanate] |  |  | Log2FoldChange [2]: -0.1203 |
| CC(C)=CCCC(C)CC(=O)O (stereo not shown) [citronellic acid] |  |  | Log2FoldChange [2]: -0.0145 |
| NC(=O)NCCC[C@H](N)C(=O)O [citrulline] |  | 0.111 | Log2FoldChange [2]: -0.074 |
| CN1CC(=O)NC1=N [creatinine] |  |  | Log2FoldChange [2]: 0.1375 |
| N[C@@H](CSSC[C@H](N)C(=O)NCC(=O)O)C(=O)NCC(=O)O [cys-gly, oxidized] |  | -0.6897 |  |
| N[C@@H](CCSC[C@H](N)C(=O)O)C(=O)O [cystathionine] |  | 0.3785 |  |
| N[C@@H](CS(=O)O)C(=O)O [cysteine sulfinic acid] | 0.3674 |  |  |
| N[C@@H](CS)C(=O)NCC(=O)O [cysteinylglycine] |  | 0.2388 |  |
| N[C@@H](CSSC[C@H](N)C(=O)O)C(=O)O [cystine] |  | 0.263 | Log2FoldChange [4]: -0.4739 |
| Nc1cc[nH]c(=O)n1 [cytosine] | 0.2869 |  |  |
| O=c1c(-c2ccc(O)cc2)coc2cc(O)ccc12 [daidzein] |  |  | Log2FoldChange (mouse, in vivo): -1.474 |
| CCCCCCCCCC(=O)O[C@H](CC(=O)[O-])C[N+](C)(C)C [decanoylcarnitine (C10)] | 0.251 |  |  |
| O=C1OC(C(O)CO)C(=O)C1=O (stereo not shown) [dehydroascorbate] |  | 0.1375 |  |
| C[N+](C)(C)CCCC(=O)[O-] [deoxycarnitine] |  | -0.1047 | Log2FoldChange [4]: -0.2345 |
| CC(CCC(=O)O)C1CCC2C3CCC4CC(O)CCC4(C)C3CC(OS(=O)(=O)O)C12C (stereo not shown) [deoxycholic acid 12-sulfate*] |  |  | Log2FoldChange (mouse, in vivo): 0.3219 |
| CCCCC/C=C\C/C=C\CCCCCCCCCC(=O)O [dihomo-linoleate (20:2n6)] |  | 0.4436 |  |
| CCCCC/C=C\C/C=C\CCCCCCCCCC(=O)OC(CC(=O)[O-])C[N+](C)(C)C (stereo not shown) [dihomo-linoleoylcarnitine (C20:2)*] | 0.8074 | 0.3896 |  |
| COc1cc(CCC(=O)O)ccc1O [dihydroferulate] |  |  | Log2FoldChange [4]: -0.4344 |
| COc1cc(CCC(=O)O)ccc1OS(=O)(=O)O [dihydroferulic acid sulfate] |  |  | Log2FoldChange [2]: -0.1203 |
